Experiment [1] deals with FLAG-ADD1 WT (adducin-1), transiently expressed in HEK293 cells (UniProt P35611). The experiment in a line: co-IP; FLAG-ADD1 or FLAG-AurA transiently co-expressed with HA-TPX2 or its mutants in HEK293 cells; immunoprecipitation with anti-FLAG, blot with anti-FLAG or anti-HA.
Experiment [2] addresses FLAG-ADD1 WT (adducin-1), expressed in HeLa cells (UniProt P35611). Nature of the experiment: co-IP; HeLa cells expressing FLAG-ADD1 WT or S726A, synchronized at the M phase (nocodazole); lysates in TBS buffer (1% Triton X-100, 50 mM Tris-HCl pH 7.4, 150 mM NaCl) incubated with anti-FLAG M2 affinity resins for 16 h, eluted with FLAG peptide, blotted with anti-FLAG and anti-TPX2.

By UniProt entry, the sequences of proteins in these tests, tags left out.
UniProt P35611: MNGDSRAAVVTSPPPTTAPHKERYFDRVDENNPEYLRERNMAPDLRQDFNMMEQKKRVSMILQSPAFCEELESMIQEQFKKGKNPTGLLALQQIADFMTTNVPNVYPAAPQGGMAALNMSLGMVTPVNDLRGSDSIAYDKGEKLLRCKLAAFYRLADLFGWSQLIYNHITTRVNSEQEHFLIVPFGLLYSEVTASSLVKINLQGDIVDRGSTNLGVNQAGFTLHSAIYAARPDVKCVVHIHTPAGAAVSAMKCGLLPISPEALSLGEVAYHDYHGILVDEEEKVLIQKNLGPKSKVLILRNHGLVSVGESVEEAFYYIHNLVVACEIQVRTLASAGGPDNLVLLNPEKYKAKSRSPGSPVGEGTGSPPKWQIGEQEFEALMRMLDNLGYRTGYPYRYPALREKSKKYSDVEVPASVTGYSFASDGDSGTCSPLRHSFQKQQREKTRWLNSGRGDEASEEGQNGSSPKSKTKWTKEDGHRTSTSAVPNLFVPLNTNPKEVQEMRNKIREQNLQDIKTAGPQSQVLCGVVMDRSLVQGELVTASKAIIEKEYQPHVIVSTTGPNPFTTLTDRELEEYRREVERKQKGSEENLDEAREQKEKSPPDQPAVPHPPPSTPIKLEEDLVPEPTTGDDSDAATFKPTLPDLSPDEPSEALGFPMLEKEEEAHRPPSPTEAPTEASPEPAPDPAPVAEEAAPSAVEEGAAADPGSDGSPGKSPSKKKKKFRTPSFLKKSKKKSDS

For experiment [3] the target is unchanged. The experiment in a line: co-IP; as a1, but HeLa cells left asynchronized (interphase).

The values below come from publication PMC6073210, “Adducin‐1 is essential for spindle pole integrity through its interaction with TPX2” (EMBO Reports, 2018).

Results are given in words; binding and its absence hold for the method and conditions named. Binding seen in cells or lysates may run through a third protein. Some entries that bind do so weakly or less than the wild type.

For the molecule “HA-TPX2 Δ236–370 deletion mutant, transiently expressed in HEK293 cells (from UniProt Q9ULW0 1-747)”, in experiment [1], the binding entry is “no binding”. In the case of “HA-tagged TPX2 WT, transiently expressed in HEK293 cells (from UniProt Q9ULW0 1-747)”, the binding result in experiment [1] is “binds”.

B1: TPX2, endogenous in HeLa cells (natural protein, human (endogenous in HeLa), UniProt Q9ULW0 1-747, looked up)
chain: MSQVKSSYSYDAPSDFINFSSLDDEGDTQNIDSWFEEKANLENKLLGKNGTGGLFQGKTPLRKANLQQAIVTPLKPVDNTYYKEAEKENLVEQSIPSNACSSLEVEAAISRKTPAQPQRRSLRLSAQKDLEQKEKHHVKMKAKRCATPVIIDEILPSKKMKVSNNKKKPEEEGSAHQDTAEKNASSPEKAKGRHTVPCMPPAKQKFLKSTEEQELEKSMKMQQEVVEMRKKNEEFKKLALAGIGQPVKKSVSQVTKSVDFHFRTDERIKQHPKNQEEYKEVNFTSELRKHPSSPARVTKGCTIVKPFNLSQGKKRTFDETVSTYVPLAQQVEDFHKRTPNRYHLRSKKDDINLLPSKSSVTKICRDPQTPVLQTKHRARAVTCKSTAELEAEELEKLQQYKFKARELDPRILEGGPILPKKPPVKPPTEPIGFDLEIEKRIQERESKKKTEDEHFEFHSRPCPTKILEDVVGVPEKKVLPITVPKSPAFALKNRIRMPTKEDEEEDEPVVIKAQPVPHYGVPFKPQIPEARTVEICPFSFDSRDKERQLQKEKKIKELQKGEVPKFKALPLPHFDTINLPEKKVKNVTQIEPFCLETDRRGALKAQTWKHQLEEELRQQKEAACFKARPNTVISQEPFVPKKEKKSVAEGLSGSLVQEPFQLATEKRAKERQELEKRMAEVEAQKAQQLEEARLQEEEQKKEELARLRRELVHKANPIRKYQGLEIKSSDQPLTVPVSPKFSTRFHC
notes: TPX2, endogenous protein of HeLa cells detected with anti-TPX2; source: endogenous, HeLa whole-cell lysate
Take B1: the results for the binding result in experiment [2] and in experiment [3] were “binds” and “no binding (condition: asynchronized (interphase) cells)”, respectively.
